No constants are given. Whether binding was seen depends on the method and setting. Some binding calls cover weakened binding; strength is not graded here.
Target: extracellular fibrinogen binding protein (Staphylococcus aureus) (UniProt A6QG59)
Experiment: ELISA; only the target purified

By UniProt entry, the sequences of proteins in these tests, tags left out. Residues count along the entry.
UniProt A6QG59, residues 30-165: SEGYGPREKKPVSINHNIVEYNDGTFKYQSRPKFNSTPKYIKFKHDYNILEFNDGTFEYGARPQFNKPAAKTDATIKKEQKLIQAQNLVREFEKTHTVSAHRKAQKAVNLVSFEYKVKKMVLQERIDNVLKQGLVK

B1: fibrinogen of cow plasma (protein, UniProt P02672;P02676;P12799)
chain 1: GPRLVERQQSACKETGWPFCSDEDWNTKCPSGCRMKGLIDEVDQDFTSRINKLRDSLFNYQKNSKDSNTLTKNIVELMRGDFAKANNNDNTFKQISEDLRSRIEILRRKVIEQVQRIKVLQKNVRDQLVDMKRLEVDIDIKIRSCKGSCSRALEHKVDLEDYKNQQKQLEQVIAINLLPSRDIQYLPLIKMSTITGPVPREFKSQLQEAPLEWKALLEMQQTKMVLETFGGDGHARGDSVSQGTGLAPGSPRKPGTSSIGNVNPGSYGPGSSGTWNPGRPEPGSAGTWNPGRPEPGSAGTWNPGRPEPGSAGTWNPGRPEPGSAGTWNPGRPEPGSAGTWNTGSSGSSSFRPDSSGHGNIRPSSPDWGTFREEGSVSSGTKQEFHTGKLVTTKGDKELLIDNEKVTSGHTTTTRRSCSKVITKTVTNADGRTETTKEVVKSEDGSDCGDADFDWHHTFPSRGNLDDFFHRDKDDFFTRSSHEFDGRTGLAPEFAALGESGSSSSKTSTHSKQFVSSSTTVNRGGSAIESKHFKMEDEAESLEDLGFKGAHGTQKGHTKARPARGIHTSPLGEPSLTP
chain 2: GHRPYDKKKEEAPSLRPVPPPISGGGYRARPATATVGQKKVERKPPDADGCLHADPDLGVLCPTGCKLQDTLVRQERPIRKSIEDLRNTVDSVSRTSSSTFQYITLLKNMWKGRQNQVQDNENVVNEYSSHLEKHQLYIDETVKNNIPTKLRVLRSILENLRSKIQKLESDVSTQMEYCRTPCTVTCNIPVVSGKECEKIIRNEGETSEMYLIQPEDSSKPYRVYCDMKTEKGGWTVIQNRQDGSVDFGRKWDPYKQGFGNIATNAEGKKYCGVPGEYWLGNDRISQLTNMGPTKLLIEMEDWKGDKVTALYEGFTVQNEANKYQLSVSKYKGTAGNALIEGASQLVGENRTMTIHNSMFFSTYDRDNDGWKTTDPRKQCSKEDGGGWWYNRCHAANPNGRYYWGGAYTWDMAKHGTDDGVVWMNWQGSWYSMKKMSMKIRPYFPEQ
chain 3: YVATRDNCCILDERFGSYCPTTCGIADFLNNYQTSVDKDLRTLEGILYQVENKTSEARELVKAIQISYNPDQPSKPNNIESATKNSKSMMEEIMKYETLISTHESTIRFLQEVYNSNSQKIVNLRDKVVQLEANCQEPCQDTVKIHDVTGRDCQDVANKGAKESGLYFIRPLKAKQFLVYCEIDGSGNGWTVFQKRLDGSLDFKKNWIQYKEGFGHLSPTGTGNTEFWLGNEKIHLISTQSSIPYVLRIQLEDWNGRTSTADYASFKVTGENDKYRLTYAYFIGGDAGDAFDGYDFGDDSSDKFFTSHNGMQFSTWDSDNDKYDGNCAEQVGIGWWMNKCHAGHLNGVYYQGGTYSKTSTPNGYDNGIIWATWKSRWYSMKKTTMKIIPLNRLAIGEGQQHQLGGAKQVGVEHHVEIEYD
For B1, which binding is on record?
Its binding is “binds”.

Source: publication PMC5404189
